PubChem BioAssay AID1259308 – NCATS | 2017
Assay: 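Knock-downs that increase output of a recombinant reporter protein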 (primary screen). Cell system: human HEK293 embryonic kidney cells stably expressing firefly luciferase (HEK-CMV-Luc2-Hygro). Knock-down reagent: single siRNA against human genes, 0.8 pmol siRNA per well. Duration: 72 h. Measured: 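Luciferase light (ONE-Glo) measured on one replicate plate set and viability (CellTiter-Glo) on the other, scaled to a negative control siRNA, with robust z-scores and luciferase per cell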. Reading the numbers: total luciferase, z-score and total luciferase, % of control: higher = more reporter protein produced; luciferase per cell, z-score: higher = more reporter output per viable cell; viable cells, % of control: higher = more viable cells. Active means: 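An siRNA counts as active if its total luciferase robust z-score exceeds 3; genes with two or more such siRNAs out of three were retested with fresh siRNAs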. Meaning of the calls: active = raised luciferase; inactive = no rise.
In all, the deposit lists about 59,000 reagents; shown is a part drawn at random. Of all reagents, about 1,510 (2.6%) got an active call. 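Calls use total luciferase alone and ignore viability, so some active siRNAs may act by altering cell number.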 The numbers tell different reagents against one gene apart.

gene,siRNA no.,"total luciferase, z-score","total luciferase, % of control","luciferase per cell, z-score","viable cells, % of control",Call
PPIC,1,-0.4,73.9,0.0213,82.1,inactive
PPIC,2,-0.606,69.8,-0.247,83.3,inactive
PPIC,3,-0.609,69.8,-1.02,102,inactive
AP3D1,1,1.11,104,0.609,99,inactive
AP3D1,2,0.522,92.3,0.0839,101,inactive
AP3D1,3,-0.853,64.9,-0.162,75.7,inactive
TANC1,1,1.08,103,0.328,106,inactive
TANC1,2,-0.645,69.1,0.145,74.3,inactive
TANC1,3,-1.58,50.5,-1.24,78.3,inactive
SMYD1,1,-0.161,78.7,0.375,79.7,inactive
SMYD1,2,0.712,96.1,0.909,84.5,inactive
SMYD1,3,-0.334,75.3,0.466,74.4,inactive
MROH6,1,0.0298,82.5,0.261,86.1,inactive
MROH6,2,0.306,88,0.298,90.9,inactive
MROH6,3,-2.76,27,-2.51,58.4,inactive
SMIM30,1,0.0398,82.7,2.36,49.7,inactive
SMIM30,2,0.128,84.4,-0.163,98.5,inactive
SMIM30,3,-0.0625,80.6,-0.103,92.6,inactive
LINC02871,1,-0.0974,80,-0.81,111,inactive
LINC02871,2,2.37,129,1.73,91.4,inactive
LINC02871,3,0.854,98.9,2.16,62.6,inactive
TOM1L1,1,-0.553,70.9,-1.2,109,inactive
TOM1L1,2,0.039,82.7,0.828,74.3,inactive
TOM1L1,3,-0.0305,81.3,0.547,78.6,inactive
SRPK2,1,0.421,90.3,0.362,91.7,inactive
SRPK2,2,0.221,86.3,-0.547,111,inactive
SRPK2,3,0.524,92.3,0.167,98.7,inactive
MRPS7,1,-0.0362,81.2,-0.518,104,inactive
MRPS7,2,1.39,110,1.19,89.5,inactive
MRPS7,3,-1.67,48.7,0.486,47.9,inactive
STEEP1P1,1,0.951,101,2.63,56.3,inactive
STEEP1P1,2,0.402,89.9,0.285,93.2,inactive
STEEP1P1,3,0.489,91.6,-0.15,107,inactive
RIPPLY2,1,-1.89,44.3,-1.63,76,inactive
RIPPLY2,2,-1.16,58.8,-0.645,77.9,inactive
RIPPLY2,3,0.721,96.2,0.467,95.1,inactive
AP3S2,1,-0.396,74,-0.649,98.1,inactive
AP3S2,2,0.418,90.2,0.519,87.9,inactive
AP3S2,3,0.112,84.1,-0.531,108,inactive
ARL6IP4,1,1.17,105,1.46,80,inactive
ARL6IP4,2,1.96,121,1.47,91.8,inactive
ARL6IP4,3,-0.214,77.6,0.181,82.7,inactive
TMEM31,1,0.893,99.6,0.839,89.3,inactive
TMEM31,2,1.08,103,1.74,72.9,inactive
TMEM31,3,-0.733,67.3,0.817,60.7,inactive
ELFN1,1,-0.695,68.1,-0.637,90,inactive
ELFN1,2,0.287,87.6,0.513,85.5,inactive
ELFN1,3,1.05,103,0.69,95.8,inactive

Next part; the last 6 above are carried over.
gene,siRNA no.,"total luciferase, z-score","total luciferase, % of control","luciferase per cell, z-score","viable cells, % of control",Call
TMEM31,1,0.893,99.6,0.839,89.3,inactive
TMEM31,2,1.08,103,1.74,72.9,inactive
TMEM31,3,-0.733,67.3,0.817,60.7,inactive
ELFN1,1,-0.695,68.1,-0.637,90,inactive
ELFN1,2,0.287,87.6,0.513,85.5,inactive
ELFN1,3,1.05,103,0.69,95.8,inactive
IL17B,1,0.0286,82.5,0.000581,92.1,inactive
IL17B,2,-0.0179,81.5,0.184,86.8,inactive
IL17B,3,2.11,124,1.4,95.7,inactive
RAD51,1,-0.0681,80.5,0.78,73.3,inactive
RAD51,2,-1,62,-1.1,92.6,inactive
RAD51,3,-0.998,62,-0.771,84.9,inactive
MYCBPAP,1,0.852,98.8,0.296,102,inactive
MYCBPAP,2,0.862,99,0.811,89.4,inactive
MYCBPAP,3,-0.183,78.2,0.664,73.4,inactive
HNRNPAB,1,0.0149,82.2,-0.718,111,inactive
HNRNPAB,2,4.32,168,2.84,88.9,active
HNRNPAB,3,1.42,110,2.43,64.9,inactive
TXLNGY,1,-0.837,65.2,-0.771,89.3,inactive
TXLNGY,2,-2.1,40.2,-2.52,87.2,inactive
TXLNGY,3,1.59,113,1.53,84.8,inactive
TXLNGY,4,0.63,94.4,1.24,76.1,inactive
TXLNGY,5,0.463,91.1,0.689,84.9,inactive
TXLNGY,6,-0.268,76.6,0.483,75.3,inactive
MZT1,1,0.643,94.7,-0.297,114,inactive
MZT1,2,-0.0533,80.8,-0.514,103,inactive
MZT1,3,2.98,141,2.57,80.2,inactive
AUNIP,1,-0.199,77.9,0.382,78.8,inactive
AUNIP,2,0.0801,83.5,-0.415,104,inactive
AUNIP,3,-0.458,72.8,-0.137,84.3,inactive
MYO7B,1,-0.984,62.3,-0.557,80.6,inactive
MYO7B,2,0.235,86.6,0.43,86.4,inactive
MYO7B,3,-0.24,77.1,0.267,80.3,inactive
